Laboratory results taken from PMC8508692.
These are yes or no findings as the source states them, for the method shown. In cells and extracts the contact can be indirect. Some entries that bind do so weakly or less than the wild type.

Sequences of proteins named here, by UniProt entry; tags and fusion partners are left off. Residues count along the entry.
UniProt Q9EQD0, residues 27-585: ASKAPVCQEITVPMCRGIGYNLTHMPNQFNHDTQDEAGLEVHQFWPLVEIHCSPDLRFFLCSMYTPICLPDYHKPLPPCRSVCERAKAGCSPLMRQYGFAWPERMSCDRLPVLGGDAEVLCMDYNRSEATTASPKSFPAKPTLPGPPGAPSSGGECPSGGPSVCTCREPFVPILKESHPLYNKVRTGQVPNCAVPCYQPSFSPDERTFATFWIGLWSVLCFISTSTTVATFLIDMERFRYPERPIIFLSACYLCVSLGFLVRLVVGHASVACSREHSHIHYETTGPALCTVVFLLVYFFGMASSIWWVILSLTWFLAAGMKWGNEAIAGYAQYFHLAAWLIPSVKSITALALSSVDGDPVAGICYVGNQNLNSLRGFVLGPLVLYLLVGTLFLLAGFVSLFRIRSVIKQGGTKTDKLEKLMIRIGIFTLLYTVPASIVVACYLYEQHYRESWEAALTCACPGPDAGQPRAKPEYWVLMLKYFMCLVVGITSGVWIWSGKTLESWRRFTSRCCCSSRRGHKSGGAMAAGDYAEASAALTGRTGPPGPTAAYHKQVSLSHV

Molecular target: frizzled 5 (FZD5) (mouse (endogenous in mouse COBs)) (UniProt Q9EQD0)
Assay: co-IP; wild-type mouse COBs lysed (50 mM Tris-HCl pH 7.4, 150 mM NaCl, 1% Triton X-100, 1 mM EDTA, 1 mM EGTA, 50 mM NaF, 1 mM Na3VO4, 1 mM PMSF, protease inhibitors); immunoprecipitated with IgG control or anti-FZD5 antibody and protein G-conjugated agarose; immunoblotted; endogenous proteins

binding: binds
B1: ubiquitin-specific protease 8 (USP8) (enzyme, UniProt Q80U87 1-1080)
chain: MPAVASVPKELYLSSSLKDLNKKTEVKPEKTSTKNYIHSAQKIFKTAEECRLDRDEERAYVLYMKYVAVYNLIKKRPDFKQQQDYYLSILGPANIKKAIEEAERLSESLKLRYEEAEVRKQLEEKDRREEEQLQQQKRQEMGREDSGAAAKRSVENLLDSKTKTQRINGEKSEGAAAAERGAITAKELYTMMMDKNTSLIIMDARKIQDYQHSCILDSLSVPEEAISPGVTASWIEANLSDDSKDTWKKRGSVDYVVLLDWFSSAKDLLLGTTLRSLKDALFKWESKTVLRHEPLVLEGGYENWLLCYPQFTTNAKVTPPPRSRAEEVSVSLDFTYPSLEEPVPSKLPTQMPPPPIETNEKALLVTDQDEKLRLSTQPALAGPGAAPRAEASPIIQPAPATKSVPQVDRTKKPSVKLPEDHRIKSENTDQSGRVLSDRSTKPVFPSPTTMLTDEEKARIHQETALLMEKNKQEKELWDKQQKEQKEKLRREEQERKAGKTQDADERDSTENQHKAKDGQEKKDSKQTKTEDRELSADGAQEATGTQRQSKSEHEASDAKVPVEGKRCPTSEAQKRPADVSPASVSGELNAGKAQREPLTRARSEEMGRIVPGLPLGWAKFLDPITGTFRYYHSPTNTVHMYPPEMAPSSAPPSTPPTHKVKPQVPAERDREPSKLKRSYSSPDITQALQEEEKRRPAVTPMVNRENKPPCYPKAEISRLSASQIRNLNPVFGGSGPALTGLRNLGNTCYMNSILQCLCNAPHLADYFNRNCYQDDINRSNLLGHKGEVAEEFGIIMKALWTGQYRYISPKDFKVTIGKINDQFAGSSQQDSQELLLFLMDGLHEDLNKADNRKRHKEENNEHLDDLQAAEHAWQKHKQLNESIIVALFQGQFKSTVQCLTCRRRSRTFEAFMYLSLPLASTSKCTLQDCLRLFSKEEKLTDNNRFYCSHCRARRDSLKKIEIWKLPPVLLVHLKRFSYDGRWKQKLQTSVDFPLENLDLSQYVIGPKNSLKKYNLFSVSNHYGGLDGGHYTAYCKNAARQRWFKFDDHEVSDISVSSVRSSAAYILFYTSLGPRITDVAT
